Results as given in PubChem BioAssay (Tox21).
Several values for one entry are separate records, joined by “and”; a condition that tells them apart may be missing. Identical values can stand only once. Inconclusive results, whose numbers are uncertain, are shown with a selection of clear calls. Potencies of inconclusive entries are doubtful fits and often do not repeat. Activity calls are given as the source filed them. Unless noted, calls follow the shape of the full dose curve.

Experiment: p53 small molecule agonists, cell-based qHTS assay: qHTS cell viability counter screen (AID 1963581); also: nearly all actives have a fitted effect of over 45% in size
Conditions: p53RE-bla HCT-116 viability, ATP luminescence, 16 h; series mostly up to 66 µM
How it was run: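 Luminescence from CellTiter-Glo, reflecting ATP content, serves as the cytotoxicity measure; it is taken after the 2 h reporter substrate step in HCT-116 p53RE-bla cells dosed for 16 h at 37 C.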
Potency is read from the fitted curve at half-maximal effect.

**Q.** With `CN(C)CCO` as the molecule, how does the Potency read?
**A.** inconclusive: 2.59 µM [rising, partial curve, poor fit]

**Q.** Which Potency does the source give for `COCc1cnc(C2=NC(C)(C(C)C)C(=O)N2)c(C(=O)O)c1` (stereo not given) here?
**A.** inconclusive: 1.29 µM [rising, partial curve, poor fit]

**Q.** Which Potency does the source give for `CC(=O)CN(CC(C)=O)N=O` here?
**A.** inconclusive: 0.408 µM [cytotoxic, single point]

**Q.** For `COC(=O)c1ccccc1C(=O)OC`, which Potency is on record?
**A.** inconclusive: 0.182 µM [rising, full curve, poor fit]

**Q.** Which Potency does the source give for `CC(C)(C)OO` here?
**A.** inconclusive: 51.3 µM [rising, single point]

**Q.** For `CC(=O)C=C(C)C`, which Potency is on record?
**A.** inactive and inconclusive: 18.2 µM [cytotoxic, single point]

**Q.** With `NCc1cccnc1` as the molecule, how does the Potency read?
**A.** inconclusive: 45.8 µM [cytotoxic, single point]

**Q.** With `CC(NC(C)(C)C)C(=O)c1cccc(Cl)c1` (stereo not given) as the molecule, how does the Potency read?
**A.** inconclusive: 12.2 µM [rising, partial curve, poor fit]

**Q.** With `Clc1cccc(N2CCNCC2)c1` as the molecule, how does the Potency read?
**A.** inactive

**Q.** With `CCC[N+]1(C)CCCCC1` as the molecule, how does the Potency read?
**A.** inconclusive: 10.3 µM [cytotoxic, single point]

**Q.** For `O=P1(NCCCl)OCCCN1CCCl` (stereo not given), which Potency is on record?
**A.** inconclusive: 10.2 µM [rising, partial curve, poor fit]

**Q.** For `CCCC[n+]1ccccc1`, which Potency is on record?
**A.** inconclusive: 1.82 µM [cytotoxic, single point]

**Q.** With `COC(=O)c1c(C(F)F)nc(C(F)(F)F)c(C2=NCCS2)c1CC(C)C` as the molecule, how does the Potency read?
**A.** inactive

**Q.** For `Nc1cc(Cl)cc(Cl)c1`, which Potency is on record?
**A.** inconclusive: 1.62 µM [cytotoxic, single point]

**Q.** With `Clc1ccccc1-c1nnc(-c2ccccc2Cl)nn1` as the molecule, how does the Potency read?
**A.** inactive

**Q.** With `CCC1(c2ccccc2)C(=O)N=C(O)NC1=O` (stereo not given) as the molecule, how does the Potency read?
**A.** inconclusive: 28.1 µM [rising, single point]

**Q.** Which Potency does the source give for `CCCCOC(C)=O` here?
**A.** inconclusive: 1.88 µM [cytotoxic, single point]

Experiment: p53 small molecule agonists, cell-based qHTS assay (AID 1963582; active = well fitted activation curve with a large enough effect in the signal ratio in the repeat runs, not every such curve was filed as active; inconclusive = weak or mixed curves; the % refers to the signal ratio)
Conditions: HCT-116 p53RE-bla reporter, beta-lactamase FRET ratio, 16 h; series mostly up to 66 µM
How it was run: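 After plating, p53RE-bla cells sat 5 h in the incubator; compounds or DMSO vehicle were pinned in; a 16 h incubation at 37 C followed; FRET substrate was added and, 2 h later at RT, fluorescence was measured.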

**Q.** For `Cc1nnc2n1-c1sc(CCC(=O)N3CCOCC3)cc1C(c1ccccc1Cl)=NC2`, which Potency is on record?
**A.** inactive

**Q.** Which Potency does the source give for `CSc1nc(NC(C)C)nc(NC(C)C)n1` here?
**A.** inconclusive: 11.4 µM [rising, partial curve, poor fit]

**Q.** For `CC1(c2ccc(Oc3ccccc3)cc2)OC(=O)N(Nc2ccccc2)C1=O` (stereo not given), which Potency is on record?
**A.** inactive

**Q.** With `O=c1[nH]oc2c1CCNC2` as the molecule, how does the Potency read?
**A.** inconclusive: 0.793 µM [falling, single point]

**Q.** Which Potency does the source give for `O=NN(CCO)CCO` here?
**A.** inactive

**Q.** Which Potency does the source give for `CN1CCC(N(Cc2ccccc2)c2ccccc2)CC1` here?
**A.** inactive

**Q.** For `O=C(Cl)c1ccc(Cl)cc1`, which Potency is on record?
**A.** inconclusive: 5.76 µM [rising, partial curve]

**Q.** With `O=C(NC(=O)c1c(F)cccc1F)Nc1ccc(Oc2ccc(C(F)(F)F)cc2Cl)cc1F` as the molecule, how does the Potency read?
**A.** inconclusive: 18.2 µM [rising, partial curve]

**Q.** With `O=C1NCN(c2ccccc2)C12CCN(CC1COc3ccccc3O1)CC2` (stereo not given) as the molecule, how does the Potency read?
**A.** inconclusive: 14.1 µM [rising, partial curve, poor fit]

**Q.** Which Potency does the source give for `COc1c(C(C)(C)C)cc([N+](=O)[O-])c(C)c1[N+](=O)[O-]` here?
**A.** inactive

**Q.** With `CCCCCCCCCCCCCCCCCCn1cc[n+](C)c1` as the molecule, how does the Potency read?
**A.** inconclusive: 6.43 µM [rising, full curve]

**Q.** Which Potency does the source give for `CCC(C)(NC(=O)c1cc(Cl)c(C)c(Cl)c1)C(=O)CCl` (stereo not given) here?
**A.** inconclusive: 36.6 µM [activator, partial curve]

**Q.** For `N#Cc1cc(Br)c(O)c(Br)c1`, which Potency is on record?
**A.** inconclusive: 12.9 µM [fluorescent, partial curve, poor fit] and inconclusive: 8.79 µM [fluorescent, partial curve, poor fit]

**Q.** For `CCC(=O)C(CCN(C)C)(c1ccccc1)c1ccccc1`, which Potency is on record?
**A.** inactive

**Q.** Which Potency does the source give for `Nc1ccccc1` here?
**A.** inconclusive: 52.4 µM [rising, partial curve, poor fit]

**Q.** For `BrCC(Br)C1CCC(Br)C(Br)C1` (stereo not given), which Potency is on record?
**A.** inactive

**Q.** With `CNC` as the molecule, how does the Potency read?
**A.** inconclusive: 0.0358 µM [rising, full curve, poor fit]

**Q.** Which Potency does the source give for `CCOC(=O)C1(c2ccccc2)CCN(CCC(C#N)(c2ccccc2)c2ccccc2)CC1` here?
**A.** active: 7.93 µM

**Q.** For `Fc1ccc(C(OCCN2CCN(CCCc3ccccc3)CC2)c2ccc(F)cc2)cc1`, which Potency is on record?
**A.** inconclusive: 25.1 µM [falling, single point]

**Q.** Which Potency does the source give for `CC(C)(C#N)N=NC(C)(C)C#N` here?
**A.** inconclusive: 49.5 µM [falling, single point]

**Q.** Which Potency does the source give for `CN1CCc2cc(Cl)c(O)cc2[C@H]2c3ccccc3CC[C@@H]21` here?
**A.** inactive

**Q.** Which Potency does the source give for `C[C@@H](Oc1ccc(Cl)cc1Cl)C(=O)O` here?
**A.** inconclusive: 9.13 µM [rising, full curve]

**Q.** With `CCCCCCCCCCOC(=O)c1ccccc1C(=O)OCCCCCCCCCC` as the molecule, how does the Potency read?
**A.** inactive
